These are yes or no findings as the source states them, for the method shown. Some binding calls cover weakened binding; strength is not graded here.
Tests used:
[1] = molecular target: Fibronectin (FN), full length, purified from human plasma (human) (UniProt P02751); experiment: ELISA, pre-coated ECM plate (FIG. 4A)
[2] = molecular target: 30 kDa heparin binding fragment of fibronectin (Sigma Cat. No. F9911) (UniProt P02751); experiment: ELISA on coated FN fragments, equimolar (FIG. 7A)
[3] = molecular target: 45 kDa gelatin binding fragment of fibronectin (Sigma Cat. No. F0162) (UniProt P02751); experiment: ELISA on coated FN fragments, equimolar (FIG. 7A)
[4] = molecular target: Fibronectin (FN), full length, purified from human plasma (human) (UniProt P02751); experiment: ELISA on coated FN and FN fragments, equimolar (FIG. 7A)
[5] = molecular target: Fibronectin (FN), full length, purified from human plasma (human) (UniProt P02751); experiment: ELISA, pre-coated ECM plate, Fc-TEM1 at increasing concentrations (FIG. 4A)

Chains of the proteins cited; added tags and fusions are not shown. Lines headed by an entry give the natural chain unless they say otherwise; changes in a name come on top. A line that says so, or that is headed by a name, gives the form on record, which may keep a tag or linker. Residues count along the entry.
30 kDa heparin binding fragment of fibronectin (Sigma Cat. No. F9911) (P02751, residues 32-290): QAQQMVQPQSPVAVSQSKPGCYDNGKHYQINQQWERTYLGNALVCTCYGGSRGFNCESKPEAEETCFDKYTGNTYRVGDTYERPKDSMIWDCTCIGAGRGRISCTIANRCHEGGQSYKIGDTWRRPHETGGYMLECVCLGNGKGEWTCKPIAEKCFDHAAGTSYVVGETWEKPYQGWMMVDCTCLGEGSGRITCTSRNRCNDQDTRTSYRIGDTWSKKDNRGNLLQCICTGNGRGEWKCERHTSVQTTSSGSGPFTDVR
45 kDa gelatin binding fragment of fibronectin (Sigma Cat. No. F0162) (P02751, residues 291-608): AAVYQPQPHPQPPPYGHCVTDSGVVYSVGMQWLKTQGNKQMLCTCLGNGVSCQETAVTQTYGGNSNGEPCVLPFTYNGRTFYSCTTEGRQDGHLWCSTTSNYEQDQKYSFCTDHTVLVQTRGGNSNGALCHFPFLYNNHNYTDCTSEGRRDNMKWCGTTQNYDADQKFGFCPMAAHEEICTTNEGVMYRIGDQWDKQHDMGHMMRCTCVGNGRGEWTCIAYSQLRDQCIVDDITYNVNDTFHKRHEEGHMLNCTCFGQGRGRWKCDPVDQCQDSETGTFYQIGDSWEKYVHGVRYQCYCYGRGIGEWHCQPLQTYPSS
Fc-TEM1 (soluble recombinant endosialin: full-length TEM1 extracellular domain fused to monomeric murine IgG2b Fc) (Q9HCU0, form named): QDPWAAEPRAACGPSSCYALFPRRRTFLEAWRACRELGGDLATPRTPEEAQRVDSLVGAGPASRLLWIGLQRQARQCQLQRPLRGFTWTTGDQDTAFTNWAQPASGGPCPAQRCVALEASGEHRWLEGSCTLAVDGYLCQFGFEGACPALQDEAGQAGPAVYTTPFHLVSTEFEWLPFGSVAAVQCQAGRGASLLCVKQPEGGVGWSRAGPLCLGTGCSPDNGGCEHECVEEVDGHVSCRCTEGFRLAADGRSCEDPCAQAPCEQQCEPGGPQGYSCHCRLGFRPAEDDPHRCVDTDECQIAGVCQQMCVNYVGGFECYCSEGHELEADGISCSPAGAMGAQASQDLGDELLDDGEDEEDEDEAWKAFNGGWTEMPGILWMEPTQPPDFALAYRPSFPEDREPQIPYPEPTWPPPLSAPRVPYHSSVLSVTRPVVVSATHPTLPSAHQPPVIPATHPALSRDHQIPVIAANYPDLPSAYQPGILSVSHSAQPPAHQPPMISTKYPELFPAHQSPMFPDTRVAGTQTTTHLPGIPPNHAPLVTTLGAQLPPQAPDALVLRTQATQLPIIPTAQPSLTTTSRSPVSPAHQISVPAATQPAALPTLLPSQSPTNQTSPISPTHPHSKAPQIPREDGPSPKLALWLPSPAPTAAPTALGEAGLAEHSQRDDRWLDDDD

Measured: binding

Fc-TEM1 (soluble recombinant endosialin: full-length TEM1 extracellular domain fused to monomeric murine IgG2b Fc) (from UniProt Q9HCU0 18-687) (Fc fusion)
binds: all assays above

Reference: patent US20080248034A1
